Source: the supplement of paper PMC4749390
Structures can show the parent of a compound that is named as a salt. The list shows a part of the results. Single values are uncertain here, since repeats match poorly.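 JEG3 cells stably carry tetracycline-induced wild-type human LRH-1, a heavily sumoylated nuclear receptor. APOC3 and MUC1 are SUMO-sensitive transcripts, raised by SUMO-less LRH-1 or UBC9 knockdown, measured by RT-qPCR against TBP and DMSO controls. A robust Z-score above +2 or below -2 marked a primary hit before toxicity and TBP filtering.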

What follows are compounds tested on JEG3 expressing hLRH-1 (assay: APOC3 transcript change (ddCt vs TBP and DMSO), Z-score over library; higher = higher APOC3 expression). Conditions: 10 µM; time (hr): 24.

Row | SMILES | APOC3 transcript change (Z-score)
1 | CCCC(C)(COC(N)=O)COC(=O)NC(C)C (configuration not stated) [Carisoprodol] | 1.3
2 | CN(C)C(=O)Oc1cccc([N+](C)(C)C)c1 [Neostigmine bromide] | 0.18
3 | CN(C)C(=O)Oc1cc(OC(=O)N(C)C)cc(C(O)CNC(C)(C)C)c1 (configuration not stated) [bambuterol hydrochloride] | -0.941
4 | S=C=NCc1ccccc1 [benzyl isothiocyanate] | -5.75
5 | COP(=O)(OC)OC=C(Cl)Cl [dichlorvos] | -0.399
6 | COP(=O)(OC)C(O)C(Cl)(Cl)Cl (configuration not stated) [trichlorfon] | -0.354
7 | C=CCN1CC[C@]23c4c5ccc(O)c4O[C@H]2C(=O)CC[C@@]3(O)[C@H]1C5 [naloxone hydrochloride] | -0.411
8 | CC[C@@]1(C2O[C@@H](C3O[C@@](O)(CC)[C@H](C)C[C@@H]3C)C[C@@H]2C)CC[C@H]([C@]2(C)CCC3(C[C@H](O)[C@@H](C)[C@@H]([C@H](C)[C@@H](OC)[C@H](C)C(=O)O)O3)O2)O1 (some centres not stated) [monensin sodium (monensin a is shown)] | 0.42
9 | CO[C@]12C[C@@H](COC(=O)c3cncc(Br)c3)CN(C)[C@@H]1Cc1cn(C)c3cccc2c13 [nicergoline] | 0.208
10 | O=C(NC(=O)c1c(F)cccc1F)Nc1cc(Cl)c(OC(F)(F)C(F)C(F)(F)F)cc1Cl (configuration not stated) [lufenuron] | 0.107
11 | NCC(CC(=O)O)c1ccc(Cl)cc1 (racemic) [(±)-Baclofen] | -0.0733
12 | CN(C)[C@@H]1C(=O)C(C(N)=O)=C(O)[C@@]2(O)C(O)=C3C(=O)c4c(O)ccc(Cl)c4[C@@](C)(O)[C@H]3C[C@@H]12 [chlortetracycline] | 1.09
13 | CCC1(c2ccc(N)cc2)CCC(=O)NC1=O (racemic) [(±)-p-Aminoglutethimide] | -0.475
14 | CN1CCN(C(=O)O[C@H]2c3nccnc3C(=O)N2c2ccc(Cl)cn2)CC1 [eszopiclone] | 0.57
15 | NC(=O)C[S@@](=O)C(c1ccccc1)c1ccccc1 [armodafinil] | 0.603
16 | CN1C2CC[C@@H]1C[C@@H](OC(=O)[C@H](CO)c1ccccc1)C2 [hyoscyamine] | -1.49
17 | CN(C)[C@@H]1C(=O)C(C(N)=O)=C(O)[C@@]2(O)C(O)=C3C(=O)c4c(O)cccc4[C@@](C)(O)[C@H]3[C@H](O)[C@@H]12 [oxytetracycline] | 0.0202
18 | NCc1cccnc1 [picolamine] | -0.731
19 | CC(NC(C)(C)C)C(=O)c1cccc(Cl)c1 (configuration not stated) [Bupropion hydrochloride] | 0.129
20 | NC1C[C@H]1c1ccccc1 (some centres not stated) [tranylcypromine sulfate] | -1.35
21 | CCCN1C[C@H](CSC)C[C@@H]2c3cccc4[nH]cc(c34)C[C@H]21 [Pergolide methanesulfonate] | 0.154
22 | CN(C)[C@@H]1C(=O)C(C(N)=O)=C(O)[C@@]2(O)C(O)=C3C(=O)c4c(O)cccc4[C@@](C)(O)[C@H]3C[C@@H]12 [tetracycline hydrochloride] | -0.443
23 | CCOC(=O)CC(SP(=S)(OC)OC)C(=O)OCC (configuration not stated) [malathion] | 0.234
24 | CC(N)Cc1ccc(O)cc1 (configuration not stated) [hydroxyamphetamine hydrobromide] | -0.284
25 | CC(C)[N+](C)(CCC(C(N)=O)(c1ccccc1)c1ccccc1)C(C)C [isopropamide iodide] | -0.118
26 | O=C1CC[C@@]2(O)[C@H]3Cc4ccc(O)c5c4[C@@]2(CCN3CC2CC2)[C@H]1O5 [naltrexone hydrochloride] | -0.409

Row | SMILES | APOC3 transcript change (Z-score)
27 | CC(C)CC(N(C)C)C1(c2ccc(Cl)cc2)CCC1 (configuration not stated) [sibutramine hydrochloride] | 0.985
28 | N#Cc1nn(-c2c(Cl)cc(C(F)(F)F)cc2Cl)c(N)c1S(=O)C(F)(F)F (configuration not stated) [fipronil] | -1.09
29 | CCCCOC(=O)c1ccccc1C(=O)OCCCC [dibutyl phthalate] | -0.987
30 | O=P1(N(CCCl)CCCl)NCCCO1 (configuration not stated) [cyclophosphamide hydrate] | 0.185
31 | CCOP(=S)(OCC)Oc1ccc2c(C)c(Cl)c(=O)oc2c1 [coumophos] | -1.45
32 | Cl[C@H]1[C@H](Cl)[C@@H](Cl)[C@@H](Cl)[C@H](Cl)[C@H]1Cl [lindane] | 4.2
33 | O=c1cccc2n1C[C@@H]1CNC[C@H]2C1 [cytisine] | -1.12
34 | Oc1ccc2c3c1O[C@H]1[C@@H](O)CC[C@@]4(O)[C@@H](C2)N(CC2CCC2)CC[C@]314 [nalbuphine hydrochloride] | -0.357
35 | CC1(C)C(C=C(Cl)Cl)C1C(=O)OC(C#N)c1cccc(Oc2ccccc2)c1 (configuration not stated) [cypermethrin] | 0.507
36 | Cc1ccc(-c2nc3ccc(C)cn3c2CC(=O)N(C)C)cc1 [zolpidem] | 1.65
37 | CC(C)c1cccc(C(C)C)c1O [Propofol] | -0.31
38 | O=[N+]([O-])c1cc([As](=O)(O)O)ccc1O [roxarsone] | 0.665
39 | COC(C)(C)CCC[C@H](C)C/C=C/C(C)=C/C(=O)OC(C)C [methoprene (s)] | 0.22
40 | CCCC(C)C1(CC)C(=O)N=C(S)NC1=O (configuration not stated) [thiopental sodium] | -0.117
41 | C#CC(C)(O)CC (configuration not stated) [meparfylon] | 0.0911
42 | CC(=O)NC1CCSC1=O (configuration not stated) [citiolone] | 0.238
43 | CNC(=O)Oc1ccccc1OC(C)C [propoxur] | -0.985
44 | c1ccc2c(c1)OCC(C1=NCCN1)O2 (configuration not stated) [idazoxan hydrochloride] | -0.479
45 | CCOP(=S)(OCC)Oc1nc(Cl)c(Cl)cc1Cl [chlorpyrifos] | -0.417
46 | c1ccc2c(c1)Nc1ccccc1S2 [phenothiazine] | 0.413
47 | CCCCCCCCCCCCCCCC[n+]1ccccc1 [cetylpyridinium chloride] | -0.0196
48 | [NH2][Pt]1([NH2])[O]C(=O)C2(CCC2)C(=O)[O]1 [carboplatin] | 0.341
49 | CCOc1cc(C=O)ccc1O [ethyl vanillin] | -0.396
50 | CCNC1(c2cccs2)CCCCC1=O (configuration not stated) [tiletamine hydrochloride] | -1.44
51 | C=C1C[C@@H]2[C@H](CC[C@]3(C)C(=O)CC[C@@H]23)[C@@]2(C)C=CC(=O)C=C12 [exemestane] | 0.756
52 | COC(=O)C(c1ccccc1)C1CCCCN1 (configuration not stated) [methylphenidate hydrochloride] | 0.684

Structural class: the compounds so far containing fluorine (two)
Row | SMILES | APOC3 transcript change (Z-score)
10 | O=C(NC(=O)c1c(F)cccc1F)Nc1cc(Cl)c(OC(F)(F)C(F)C(F)(F)F)cc1Cl (configuration not stated) [lufenuron] | 0.107
28 | N#Cc1nn(-c2c(Cl)cc(C(F)(F)F)cc2Cl)c(N)c1S(=O)C(F)(F)F (configuration not stated) [fipronil] | -1.09
